{"source": "patent US12115147B2", "about": "“Formulations and methods related to eye irritation” (Lebrun Labs LLC, priority 2020, dated 2024)", "origin": "cited, not measured here", "system": "rabbit eye", "details": "cited from earlier work", "data": [{"molecule": "CC(C)(C)c1ccc(O)cc1", "note": "[p-Tert-butylphenol]", "values": [{"measurement": "In vivo GHS", "value": "1 (key: NC (not classified as an irritant); 2A (reversal by 7 days); 2B (reversal by 14 days); 1 (no reversal by 21 days))"}]}]}
